In this data set the target is T1, Pab DNA polymerase (Pyrococcus sp. GE 5) (Pyrococcus abyssi GE5) (UniProt P0CL77).
T1 sequence: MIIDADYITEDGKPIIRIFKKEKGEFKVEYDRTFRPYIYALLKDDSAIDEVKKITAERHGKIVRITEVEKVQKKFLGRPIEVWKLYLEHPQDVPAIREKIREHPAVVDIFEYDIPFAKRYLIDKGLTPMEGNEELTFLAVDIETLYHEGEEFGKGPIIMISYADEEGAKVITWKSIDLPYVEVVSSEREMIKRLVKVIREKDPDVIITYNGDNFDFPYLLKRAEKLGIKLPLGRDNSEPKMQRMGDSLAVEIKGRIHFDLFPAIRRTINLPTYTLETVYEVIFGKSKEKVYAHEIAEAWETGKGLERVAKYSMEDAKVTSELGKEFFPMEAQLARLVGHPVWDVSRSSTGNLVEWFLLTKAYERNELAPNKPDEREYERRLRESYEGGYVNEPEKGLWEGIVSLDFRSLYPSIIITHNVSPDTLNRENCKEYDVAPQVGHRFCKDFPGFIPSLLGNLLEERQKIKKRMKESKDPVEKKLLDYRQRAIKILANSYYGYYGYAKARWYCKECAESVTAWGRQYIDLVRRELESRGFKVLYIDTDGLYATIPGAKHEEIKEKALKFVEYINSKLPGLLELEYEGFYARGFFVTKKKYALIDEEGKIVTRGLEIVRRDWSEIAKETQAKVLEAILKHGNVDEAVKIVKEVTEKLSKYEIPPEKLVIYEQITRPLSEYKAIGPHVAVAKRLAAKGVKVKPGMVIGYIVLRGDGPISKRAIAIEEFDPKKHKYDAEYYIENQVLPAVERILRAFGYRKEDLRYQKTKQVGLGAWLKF
Briefly: binding assay. The following applies: PCR, 420-bp product from 0.5 ng to 1 ug template; 3 mM MgSO4, 50 mM KCl, pH 9.0; purified recombinant protein; only the site is given.

The exact form of at least one protein or probe is not confirmed. Protein sequences can lack the tags named with them.

In the case of “TCACCTTAGGGTTGCCCATAA / TGGGCATAAAAGTCAGGGCAG”, the binding result is listed as “binds”.

For the origin of these results see patent US6673585.
